Measured values from patent US8318424B2, “High-throughput RNA structure analysis” (The University of North Carolina at Chapel Hill, priority 2006, dated 2012).

Test system: pAp-ethyl
Assay: 2′-O-adduct formation with [32P]-labeled pAp-ethyl
Conditions: for final extent of 2′-O-adduct formation for the two compounds: 5 mM reagent, 1M7 compared with NMIA; for dependence of reaction with pAp-ethyl on Mg2+ concentration or ionic strength: control experiments (FIG. 6)
Experimental: Hydrolysis was followed by adding (1.5 mM NMIA or 2.0 mM 1M7 in 300 μL DMSO) reagent to 1.1× buffer (2.7 mL, 6.7 mM MgCl2, 111 mM NaCl, 111 mM HEPES (pH 8.0)) equilibrated at 37° C. in a cuvette. Pseudo-first-order rates were obtained by monitoring the absorbance of the hydrolysis product (at 360 nm for 2-methylaminobenzoate and 430 nm for 2-methylamino-4-nitrobenzoate). Rates of adduct formation for [^32P]-labeled pAp-ethyl (10,000 cpm/μL) were obtained by adding 10% (v/v) reagent (5 mM final NMIA or 1M7 in DMSO) to 1.1× reaction buffer, quenching the reaction with 1 vol 250 mM dithiothreitol, resolving by gel electrophoresis (30% polyacrylamide; 29:1 acrylamide:bisacrylamide; 0.4 mm×28.5 cm×23 cm; 30 W; 45 minutes), and quantifying by phosphorimaging. Reaction rates were obtained using an equation that accounts for parallel reaction of NMIA or 1M7 by 2′-O-adduct formation (kadduct) and by hydrolysis (khydrolysis): fraction product=1−exp[(kadduct[reagent]/khydrolysis)(e^−(khydrolysis)t−1)]. Synthesis of Bacillus subtilis RNase P RNA
The ability of each compound to react with 3′-phosphoethyl-5′-adenosine monophosphate (pAp-ethyl) was then evaluated. pAp-ethyl contains a 2′-hydroxyl and 3′-phosphodiester monoanion.

Row | SMILES | final extent of 2′-O-adduct formation for the two compounds | dependence of reaction with pAp-ethyl on Mg2+ concentration or ionic strength
1 | Cn1c(=O)oc(=O)c2ccc([N+](=O)[O-])cc21 [1M7, 1-methyl-7-nitroisatoic anhydride] | identical, within error | independent of Mg^2+ concentration
2 | Cn1c(=O)oc(=O)c2ccccc21 [NMIA, N-methylisatoic anhydride] | identical, within error | strongly dependent on ionic strength
